The other results are listed elsewhere or left out.
compound: Cc1cc(ccc1-c1ccccc1)C(=O)N1CCCN(CC1)C(=O)CCl [compound 10]; test: probe-labelled cysteine peptide fold change vs DMSO (competition) (log2 fold change); higher = less target engagement (more negative = stronger competition); settings: 10 µM; THP-1; incubation time: 4 h
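Also: competitive profiling in live THP-1 cells: cysteine peptides tagged with an iodoacetamide desthiobiotin (IA-DTB) probe, intensity after compound treatment relative to DMSO-treated cells.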

Sequences of proteins named here, by UniProt entry; tags and fusion partners are left off. A change or cut given only in a name is not applied to a line headed by its entry.
UniProt Q8TEQ6: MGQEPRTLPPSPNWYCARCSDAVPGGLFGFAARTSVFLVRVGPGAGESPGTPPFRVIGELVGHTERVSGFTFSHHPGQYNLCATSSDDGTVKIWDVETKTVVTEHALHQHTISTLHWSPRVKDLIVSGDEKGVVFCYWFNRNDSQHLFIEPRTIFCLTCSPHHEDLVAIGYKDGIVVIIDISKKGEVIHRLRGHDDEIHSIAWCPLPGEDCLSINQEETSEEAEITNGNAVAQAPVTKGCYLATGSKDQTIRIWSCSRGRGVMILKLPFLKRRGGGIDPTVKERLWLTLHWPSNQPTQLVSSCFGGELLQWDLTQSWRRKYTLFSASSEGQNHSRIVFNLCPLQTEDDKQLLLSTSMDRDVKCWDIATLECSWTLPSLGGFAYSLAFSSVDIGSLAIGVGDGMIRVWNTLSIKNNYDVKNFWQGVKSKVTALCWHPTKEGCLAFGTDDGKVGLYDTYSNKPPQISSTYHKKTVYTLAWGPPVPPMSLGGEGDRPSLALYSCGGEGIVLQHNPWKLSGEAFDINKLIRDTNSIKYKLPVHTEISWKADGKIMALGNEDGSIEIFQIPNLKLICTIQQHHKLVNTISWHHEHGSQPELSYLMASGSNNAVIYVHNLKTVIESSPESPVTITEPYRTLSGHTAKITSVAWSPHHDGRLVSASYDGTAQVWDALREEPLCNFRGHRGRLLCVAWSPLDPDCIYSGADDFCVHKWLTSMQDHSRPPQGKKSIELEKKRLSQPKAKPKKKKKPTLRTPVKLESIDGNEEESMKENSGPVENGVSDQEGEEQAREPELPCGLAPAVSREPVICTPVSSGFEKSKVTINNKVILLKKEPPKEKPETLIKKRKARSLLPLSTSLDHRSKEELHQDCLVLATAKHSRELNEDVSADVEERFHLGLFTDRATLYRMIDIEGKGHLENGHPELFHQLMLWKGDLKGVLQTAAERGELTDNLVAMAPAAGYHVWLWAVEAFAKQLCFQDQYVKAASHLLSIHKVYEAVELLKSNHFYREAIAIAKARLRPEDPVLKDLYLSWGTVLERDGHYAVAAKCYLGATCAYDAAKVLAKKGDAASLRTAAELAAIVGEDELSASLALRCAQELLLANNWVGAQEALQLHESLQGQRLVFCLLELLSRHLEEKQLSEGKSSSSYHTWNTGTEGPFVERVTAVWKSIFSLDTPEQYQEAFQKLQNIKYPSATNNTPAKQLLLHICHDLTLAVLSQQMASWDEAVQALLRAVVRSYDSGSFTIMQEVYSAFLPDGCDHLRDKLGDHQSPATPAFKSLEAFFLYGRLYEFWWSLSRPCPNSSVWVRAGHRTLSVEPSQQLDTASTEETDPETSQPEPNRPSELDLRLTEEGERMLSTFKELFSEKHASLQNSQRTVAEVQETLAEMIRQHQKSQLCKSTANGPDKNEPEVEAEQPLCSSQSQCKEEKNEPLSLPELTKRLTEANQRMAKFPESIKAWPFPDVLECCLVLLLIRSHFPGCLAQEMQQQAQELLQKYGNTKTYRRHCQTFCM
UniProt Q8IWJ2: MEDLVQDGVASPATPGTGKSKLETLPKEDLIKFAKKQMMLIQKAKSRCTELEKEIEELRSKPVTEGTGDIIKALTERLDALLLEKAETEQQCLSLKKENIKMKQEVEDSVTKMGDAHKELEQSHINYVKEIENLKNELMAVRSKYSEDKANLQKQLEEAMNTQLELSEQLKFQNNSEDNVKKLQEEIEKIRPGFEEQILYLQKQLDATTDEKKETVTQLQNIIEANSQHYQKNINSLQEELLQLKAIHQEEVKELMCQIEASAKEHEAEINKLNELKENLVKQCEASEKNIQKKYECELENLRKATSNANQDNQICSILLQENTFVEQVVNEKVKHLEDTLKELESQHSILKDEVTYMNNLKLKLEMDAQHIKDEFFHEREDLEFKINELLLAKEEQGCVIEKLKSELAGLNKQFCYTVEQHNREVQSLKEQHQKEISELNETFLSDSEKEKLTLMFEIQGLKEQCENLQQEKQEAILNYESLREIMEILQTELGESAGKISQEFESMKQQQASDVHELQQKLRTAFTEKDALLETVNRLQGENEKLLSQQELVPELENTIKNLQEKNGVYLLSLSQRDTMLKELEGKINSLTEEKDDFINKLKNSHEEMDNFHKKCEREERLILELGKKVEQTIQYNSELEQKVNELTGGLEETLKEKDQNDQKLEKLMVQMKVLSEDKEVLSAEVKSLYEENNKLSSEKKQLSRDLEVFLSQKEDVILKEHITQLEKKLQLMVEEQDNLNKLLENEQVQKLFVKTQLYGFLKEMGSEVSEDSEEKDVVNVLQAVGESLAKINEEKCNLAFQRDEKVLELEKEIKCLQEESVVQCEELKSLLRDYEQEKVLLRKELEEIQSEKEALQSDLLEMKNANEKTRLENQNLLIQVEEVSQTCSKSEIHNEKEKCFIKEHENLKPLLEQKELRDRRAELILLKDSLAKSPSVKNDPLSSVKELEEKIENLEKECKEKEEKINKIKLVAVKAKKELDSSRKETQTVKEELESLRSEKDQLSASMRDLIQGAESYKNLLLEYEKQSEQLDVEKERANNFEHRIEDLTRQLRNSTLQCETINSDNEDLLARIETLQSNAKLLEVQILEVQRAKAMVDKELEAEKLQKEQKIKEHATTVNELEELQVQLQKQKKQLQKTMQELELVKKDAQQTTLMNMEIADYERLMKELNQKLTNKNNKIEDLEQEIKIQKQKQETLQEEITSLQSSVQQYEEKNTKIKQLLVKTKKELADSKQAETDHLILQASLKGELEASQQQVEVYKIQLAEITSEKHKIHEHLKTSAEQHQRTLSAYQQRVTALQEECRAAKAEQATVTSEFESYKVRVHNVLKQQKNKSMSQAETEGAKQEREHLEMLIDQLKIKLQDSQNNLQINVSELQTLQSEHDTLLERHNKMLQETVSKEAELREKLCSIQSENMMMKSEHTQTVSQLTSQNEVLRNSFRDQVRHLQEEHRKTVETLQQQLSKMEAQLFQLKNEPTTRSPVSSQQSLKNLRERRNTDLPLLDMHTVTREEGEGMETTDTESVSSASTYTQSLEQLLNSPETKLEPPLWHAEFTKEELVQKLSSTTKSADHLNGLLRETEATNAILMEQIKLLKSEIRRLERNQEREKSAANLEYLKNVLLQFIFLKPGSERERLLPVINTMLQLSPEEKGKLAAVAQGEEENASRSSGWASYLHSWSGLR
UniProt P06280: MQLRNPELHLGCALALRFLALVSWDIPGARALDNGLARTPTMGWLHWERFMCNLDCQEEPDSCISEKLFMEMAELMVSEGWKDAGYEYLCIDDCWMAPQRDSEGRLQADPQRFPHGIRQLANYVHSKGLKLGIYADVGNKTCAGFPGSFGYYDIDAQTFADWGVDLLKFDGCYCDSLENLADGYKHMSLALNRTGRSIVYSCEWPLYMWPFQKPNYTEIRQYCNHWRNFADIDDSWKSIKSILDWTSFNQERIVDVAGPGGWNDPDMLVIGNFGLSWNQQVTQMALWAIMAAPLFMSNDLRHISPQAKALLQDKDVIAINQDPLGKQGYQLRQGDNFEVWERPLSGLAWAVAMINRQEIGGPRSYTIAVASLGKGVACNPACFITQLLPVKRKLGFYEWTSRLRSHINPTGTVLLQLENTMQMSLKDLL
UniProt Q99684: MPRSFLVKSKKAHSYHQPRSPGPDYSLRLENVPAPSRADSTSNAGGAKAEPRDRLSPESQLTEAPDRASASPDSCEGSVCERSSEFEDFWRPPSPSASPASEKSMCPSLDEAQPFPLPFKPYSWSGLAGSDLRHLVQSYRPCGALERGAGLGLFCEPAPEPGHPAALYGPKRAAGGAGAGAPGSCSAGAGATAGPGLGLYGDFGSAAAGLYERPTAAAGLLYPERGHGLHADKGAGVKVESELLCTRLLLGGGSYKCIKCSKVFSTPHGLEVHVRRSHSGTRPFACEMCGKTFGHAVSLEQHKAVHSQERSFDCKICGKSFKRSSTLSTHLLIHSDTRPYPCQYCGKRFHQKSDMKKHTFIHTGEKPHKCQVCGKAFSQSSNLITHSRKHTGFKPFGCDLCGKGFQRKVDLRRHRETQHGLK
UniProt Q92947: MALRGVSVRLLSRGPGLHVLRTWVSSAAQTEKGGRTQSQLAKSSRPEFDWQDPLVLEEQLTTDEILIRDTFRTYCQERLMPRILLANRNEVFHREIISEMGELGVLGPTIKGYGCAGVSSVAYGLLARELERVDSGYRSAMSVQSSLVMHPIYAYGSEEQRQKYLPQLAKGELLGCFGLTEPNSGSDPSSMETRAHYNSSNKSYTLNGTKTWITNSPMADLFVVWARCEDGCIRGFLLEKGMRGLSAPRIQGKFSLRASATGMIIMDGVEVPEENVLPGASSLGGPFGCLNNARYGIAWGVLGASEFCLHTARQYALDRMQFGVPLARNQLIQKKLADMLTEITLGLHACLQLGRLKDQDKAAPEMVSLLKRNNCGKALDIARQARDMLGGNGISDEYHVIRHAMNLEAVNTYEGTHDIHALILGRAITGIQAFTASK
UniProt Q8ND71: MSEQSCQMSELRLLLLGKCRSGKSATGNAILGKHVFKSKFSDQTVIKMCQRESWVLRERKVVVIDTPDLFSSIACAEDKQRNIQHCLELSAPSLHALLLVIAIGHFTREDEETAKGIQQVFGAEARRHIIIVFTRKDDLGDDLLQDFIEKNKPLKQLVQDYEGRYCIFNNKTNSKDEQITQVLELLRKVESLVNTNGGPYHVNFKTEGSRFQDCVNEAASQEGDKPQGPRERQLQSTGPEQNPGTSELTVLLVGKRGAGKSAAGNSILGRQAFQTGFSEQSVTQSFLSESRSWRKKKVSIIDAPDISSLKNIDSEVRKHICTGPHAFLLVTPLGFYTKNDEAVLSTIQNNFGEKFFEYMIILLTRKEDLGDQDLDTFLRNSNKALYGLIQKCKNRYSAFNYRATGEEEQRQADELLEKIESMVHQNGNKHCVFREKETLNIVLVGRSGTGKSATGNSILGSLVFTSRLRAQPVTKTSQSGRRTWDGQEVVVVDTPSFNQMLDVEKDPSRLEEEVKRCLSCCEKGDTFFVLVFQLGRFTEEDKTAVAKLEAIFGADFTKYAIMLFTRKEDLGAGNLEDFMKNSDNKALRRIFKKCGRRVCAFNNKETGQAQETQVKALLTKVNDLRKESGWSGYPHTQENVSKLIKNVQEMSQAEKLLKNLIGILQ
UniProt P50440: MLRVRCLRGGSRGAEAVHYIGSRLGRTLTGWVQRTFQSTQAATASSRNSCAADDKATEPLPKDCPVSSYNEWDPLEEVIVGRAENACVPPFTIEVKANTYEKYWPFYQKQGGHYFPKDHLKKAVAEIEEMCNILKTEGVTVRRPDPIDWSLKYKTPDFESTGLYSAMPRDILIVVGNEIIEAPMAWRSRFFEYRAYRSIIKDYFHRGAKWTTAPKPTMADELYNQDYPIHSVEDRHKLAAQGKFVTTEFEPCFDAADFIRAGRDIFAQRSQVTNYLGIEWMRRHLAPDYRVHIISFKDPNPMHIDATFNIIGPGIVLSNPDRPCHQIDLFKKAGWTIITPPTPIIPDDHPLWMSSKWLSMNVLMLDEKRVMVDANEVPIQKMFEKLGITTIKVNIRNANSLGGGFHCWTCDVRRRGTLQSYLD
UniProt Q9H2C0: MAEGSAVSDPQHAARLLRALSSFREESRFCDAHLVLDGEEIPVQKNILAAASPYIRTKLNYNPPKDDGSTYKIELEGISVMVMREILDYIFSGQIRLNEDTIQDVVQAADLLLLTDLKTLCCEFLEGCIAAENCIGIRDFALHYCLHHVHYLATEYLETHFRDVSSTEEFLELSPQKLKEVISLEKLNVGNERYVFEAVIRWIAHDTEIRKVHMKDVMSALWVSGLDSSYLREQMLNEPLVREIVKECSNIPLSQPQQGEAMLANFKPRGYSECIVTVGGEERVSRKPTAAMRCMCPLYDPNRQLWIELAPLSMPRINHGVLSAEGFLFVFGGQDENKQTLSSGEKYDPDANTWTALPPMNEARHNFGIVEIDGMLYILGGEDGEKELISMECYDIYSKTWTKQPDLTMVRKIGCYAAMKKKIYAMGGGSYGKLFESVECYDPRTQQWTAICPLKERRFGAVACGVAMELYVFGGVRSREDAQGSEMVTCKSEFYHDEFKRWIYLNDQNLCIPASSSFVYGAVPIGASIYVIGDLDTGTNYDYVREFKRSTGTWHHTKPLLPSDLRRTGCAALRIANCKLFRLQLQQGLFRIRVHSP
UniProt Q96C23: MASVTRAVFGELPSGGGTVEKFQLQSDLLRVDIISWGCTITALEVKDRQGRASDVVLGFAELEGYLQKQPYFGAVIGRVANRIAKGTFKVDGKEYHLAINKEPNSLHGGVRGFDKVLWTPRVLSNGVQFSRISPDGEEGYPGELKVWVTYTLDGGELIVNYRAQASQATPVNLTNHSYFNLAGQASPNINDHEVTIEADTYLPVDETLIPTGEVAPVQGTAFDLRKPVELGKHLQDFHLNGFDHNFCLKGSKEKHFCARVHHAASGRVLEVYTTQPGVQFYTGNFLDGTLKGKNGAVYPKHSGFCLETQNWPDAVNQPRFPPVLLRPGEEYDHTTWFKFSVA

| Target | probe-labelled cysteine peptide fold change |
| --- | --- |
| GEMIN5_Q8TEQ6_19_CSDAVPGGLFGFAAR (UniProt Q8TEQ6) | -0.0505 |
| GIPC3_Q8TF64_79_IAEAFGIAPTEILFCTLNSHK (UniProt Q8TF64) | 0.0835 |
| GFM1_Q96RP9_594_GFLDACEK (UniProt Q96RP9) | -0.119 |
| GCN1_Q92616_1275_CMLDAALATLNTHGK (UniProt Q92616) | -0.0651 |
| GCC2_Q8IWJ2_48_CTELEK (UniProt Q8IWJ2) | 0.114 |
| GLA_P06280_378+382_GVACNPACFITQLLPVKR (UniProt P06280) | 0.071 |
| GATD1_Q8NB37_133_ILQHFHSESKPICAVGHGVAALCCATNEDR (UniProt Q8NB37) | -0.00565 |
| GATD1_Q8NB37_122+132_ILQHFHSESKPICAVGHGVAALCCATNEDR (UniProt Q8NB37) | 0.29 |
| GALT_P07902_130_VMCFHPWSDVTLPLMSVPEIR (UniProt P07902) | 0.0562 |
| GANAB_Q14697_41_TCEESSFCK (UniProt Q14697) | 0.0311 |
| GFM1_Q96RP9_153_VLDGAVLVLCAVGGVQCQTMTVNR (UniProt Q96RP9) | -0.362 |
| GAPVD1_Q14C86_789_IEDLRSECSSDFGGK (UniProt Q14C86) | -0.209 |
| GAPVD1_Q14C86_789_SECSSDFGGK (UniProt Q14C86) | -0.285 |
| GANAB_Q14697_822_RSSECMKDDPITLFVALSPQGTAQGELFLDDGHTFNYQTR (UniProt Q14697) | -0.171 |
| GEMIN5_Q8TEQ6_341_IVFNLCPLQTEDDK (UniProt Q8TEQ6) | 0.163 |
| GARS_P41250_444_QHMENEMAHYACDCWDAESK (UniProt P41250) | 0.136 |
| GFI1_Q99684_398_HTGFKPFGCDLCGK (UniProt Q99684) | 0.154 |
| GARS_P41250_442+444_QHMENEMAHYACDCWDAESK (UniProt P41250) | 0.183 |
| GIPC3_Q8TF64_152_IEAVCVGDSIEAINDHSIVGCR (UniProt Q8TF64) | -0.0385 |
| GCN1_Q92616_1527_AGSVELLGAMAYCAPK (UniProt Q92616) | 0.0969 |

| Target | probe-labelled cysteine peptide fold change |
| --- | --- |
| GDI2_P50395_414_TYDATTHFETTCDDIK (UniProt P50395) | -0.0419 |
| GBE1_Q04446_309_NSADGLNMFDGTDSCYFHSGPR (UniProt Q04446) | 0.0575 |
| GCDH_Q92947_308_YGIAWGVLGASEFCLHTAR (UniProt Q92947) | -0.0327 |
| GINS4_Q9BRT9_53_FAPELLESKPEIVECVMEQLEHMEENLR (UniProt Q9BRT9) | -0.0503 |
| GCAT_O75600_349_MEAAGFTISGASHPICPVMLGDAR (UniProt O75600) | -0.221 |
| GDI2_P50395_202_FDLGQDVIDFTGHALALYRTDDYLDQPCYETINR (UniProt P50395) | -0.369 |
| GIMAP8_Q8ND71_214_FQDCVNEAASQEGDKPQGPR (UniProt Q8ND71) | -0.292 |
| GATM_P50440_410_NANSLGGGFHCWTCDVR (UniProt P50440) | 0.0489 |
| GAMT_Q14353_169_LLKPGGVLTYCNLTSWGELMK (UniProt Q14353) | 0.0267 |
| GART_P22102_941_GSNAHEQALETGVTVTGCTVHFVAEDVDAGQIILQEAVPVKR (UniProt P22102) | -0.0235 |
| GCN1_Q92616_2255_LIGNESKGEHVPGFCLPK (UniProt Q92616) | -0.424 |
| GART_P22102_733_TFNCGVGAVLVVSK (UniProt P22102) | -0.0152 |
| GATD1_Q8NB37_179_DSGACFSASEPDAVHVVLDR (UniProt Q8NB37) | -0.357 |
| GCC2_Q8IWJ2_466_EQCENLQQEK (UniProt Q8IWJ2) | 0.214 |
| GAPVD1_Q14C86_741_LQELESCSGLGSTSDDTDVR (UniProt Q14C86) | 0.0834 |
| GCC2_Q8IWJ2_399_EEQGCVIEK (UniProt Q8IWJ2) | -0.079 |
| GAN_Q9H2C0_452_TQQWTAICPLK (UniProt Q9H2C0) | -0.0309 |
| GCN1_Q92616_449_HAYLQCMLASYR (UniProt Q92616) | 0.122 |
| GFM2_Q969S9_406_IYSGTIKPQLAIHNINGNCTER (UniProt Q969S9) | -0.332 |
| GALM_Q96C23_305_HSGFCLETQNWPDAVNQPR (UniProt Q96C23) | -0.00528 |

same assay, conditions: 50 µM; THP-1; incubation time: 4 h

| Target | probe-labelled cysteine peptide fold change |
| --- | --- |
| GEMIN5_Q8TEQ6_19_CSDAVPGGLFGFAAR (UniProt Q8TEQ6) | -0.0281 |
| GIPC3_Q8TF64_79_IAEAFGIAPTEILFCTLNSHK (UniProt Q8TF64) | 0.142 |
| GFM1_Q96RP9_594_GFLDACEK (UniProt Q96RP9) | -0.243 |
| GCN1_Q92616_1275_CMLDAALATLNTHGK (UniProt Q92616) | -0.157 |
| GCC2_Q8IWJ2_48_CTELEK (UniProt Q8IWJ2) | -0.0599 |
| GLA_P06280_378+382_GVACNPACFITQLLPVKR (UniProt P06280) | -0.0718 |
| GATD1_Q8NB37_133_ILQHFHSESKPICAVGHGVAALCCATNEDR (UniProt Q8NB37) | -0.103 |
| GATD1_Q8NB37_122+132_ILQHFHSESKPICAVGHGVAALCCATNEDR (UniProt Q8NB37) | -0.512 |
| GALT_P07902_130_VMCFHPWSDVTLPLMSVPEIR (UniProt P07902) | -0.251 |
| GANAB_Q14697_41_TCEESSFCK (UniProt Q14697) | 0.225 |
| GFM1_Q96RP9_153_VLDGAVLVLCAVGGVQCQTMTVNR (UniProt Q96RP9) | 0.0464 |
| GAPVD1_Q14C86_789_IEDLRSECSSDFGGK (UniProt Q14C86) | -0.31 |
| GAPVD1_Q14C86_789_SECSSDFGGK (UniProt Q14C86) | -0.196 |
| GANAB_Q14697_822_RSSECMKDDPITLFVALSPQGTAQGELFLDDGHTFNYQTR (UniProt Q14697) | -0.418 |
| GEMIN5_Q8TEQ6_341_IVFNLCPLQTEDDK (UniProt Q8TEQ6) | 0.0986 |
| GARS_P41250_444_QHMENEMAHYACDCWDAESK (UniProt P41250) | -0.0873 |
| GFI1_Q99684_398_HTGFKPFGCDLCGK (UniProt Q99684) | 0.544 |
| GARS_P41250_442+444_QHMENEMAHYACDCWDAESK (UniProt P41250) | -0.55 |
| GIPC3_Q8TF64_152_IEAVCVGDSIEAINDHSIVGCR (UniProt Q8TF64) | -0.263 |
| GCN1_Q92616_1527_AGSVELLGAMAYCAPK (UniProt Q92616) | -0.196 |

| Target | probe-labelled cysteine peptide fold change |
| --- | --- |
| GDI2_P50395_414_TYDATTHFETTCDDIK (UniProt P50395) | -0.0345 |
| GBE1_Q04446_309_NSADGLNMFDGTDSCYFHSGPR (UniProt Q04446) | 0.333 |
| GCDH_Q92947_308_YGIAWGVLGASEFCLHTAR (UniProt Q92947) | 0.165 |
| GINS4_Q9BRT9_53_FAPELLESKPEIVECVMEQLEHMEENLR (UniProt Q9BRT9) | 0.0806 |
| GCAT_O75600_349_MEAAGFTISGASHPICPVMLGDAR (UniProt O75600) | -0.0123 |
| GDI2_P50395_202_FDLGQDVIDFTGHALALYRTDDYLDQPCYETINR (UniProt P50395) | -0.384 |
| GIMAP8_Q8ND71_214_FQDCVNEAASQEGDKPQGPR (UniProt Q8ND71) | -0.319 |
| GATM_P50440_410_NANSLGGGFHCWTCDVR (UniProt P50440) | 0.0707 |
| GAMT_Q14353_169_LLKPGGVLTYCNLTSWGELMK (UniProt Q14353) | 0.321 |
| GART_P22102_941_GSNAHEQALETGVTVTGCTVHFVAEDVDAGQIILQEAVPVKR (UniProt P22102) | -0.0732 |
| GCN1_Q92616_2255_LIGNESKGEHVPGFCLPK (UniProt Q92616) | -0.728 |
| GART_P22102_733_TFNCGVGAVLVVSK (UniProt P22102) | 0.193 |
| GATD1_Q8NB37_179_DSGACFSASEPDAVHVVLDR (UniProt Q8NB37) | -0.147 |
| GCC2_Q8IWJ2_466_EQCENLQQEK (UniProt Q8IWJ2) | 0.205 |
| GAPVD1_Q14C86_741_LQELESCSGLGSTSDDTDVR (UniProt Q14C86) | 0.0774 |
| GCC2_Q8IWJ2_399_EEQGCVIEK (UniProt Q8IWJ2) | -0.146 |
| GAN_Q9H2C0_452_TQQWTAICPLK (UniProt Q9H2C0) | 0.0814 |
| GCN1_Q92616_449_HAYLQCMLASYR (UniProt Q92616) | 0.273 |
| GFM2_Q969S9_406_IYSGTIKPQLAIHNINGNCTER (UniProt Q969S9) | -0.12 |
| GALM_Q96C23_305_HSGFCLETQNWPDAVNQPR (UniProt Q96C23) | 0.0247 |

From the supplement of paper PMC12067093, “Discovery and optimisation of a covalent ligand for TRIM25 and its application to targeted protein ubiquitination” (Chemical Science, 2025)
